Results are given in words; binding and its absence hold for the method and conditions named. Binding seen in cells or lysates may run through a third protein. Some binding calls cover weakened binding; strength is not graded here. For part of these data: Where a sequence is shown, tags or fusion partners need not be part of it.

Chains of the proteins cited; added tags and fusions are not shown. Lines headed by an entry give the natural chain unless they say otherwise; changes in a name come on top. A line that says so, or that is headed by a name, gives the form on record, which may keep a tag or linker.
UniProt Q13153: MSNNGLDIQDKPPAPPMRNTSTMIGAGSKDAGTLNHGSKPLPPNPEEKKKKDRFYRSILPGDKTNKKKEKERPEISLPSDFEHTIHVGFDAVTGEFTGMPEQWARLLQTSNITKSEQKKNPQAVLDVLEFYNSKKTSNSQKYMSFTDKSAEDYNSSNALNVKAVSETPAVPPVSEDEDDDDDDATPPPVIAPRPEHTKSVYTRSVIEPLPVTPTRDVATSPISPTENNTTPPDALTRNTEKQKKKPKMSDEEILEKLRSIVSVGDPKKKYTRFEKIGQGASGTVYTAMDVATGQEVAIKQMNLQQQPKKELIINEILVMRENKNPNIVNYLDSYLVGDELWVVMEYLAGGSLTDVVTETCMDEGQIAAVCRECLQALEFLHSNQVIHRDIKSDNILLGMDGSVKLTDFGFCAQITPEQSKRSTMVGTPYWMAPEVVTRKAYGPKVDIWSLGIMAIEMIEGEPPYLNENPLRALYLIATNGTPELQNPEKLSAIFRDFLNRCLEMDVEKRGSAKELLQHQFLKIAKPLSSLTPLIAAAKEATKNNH
Flag-tagged p21-activated kinase 3 (Pak3), wild type (O75914-2, form named): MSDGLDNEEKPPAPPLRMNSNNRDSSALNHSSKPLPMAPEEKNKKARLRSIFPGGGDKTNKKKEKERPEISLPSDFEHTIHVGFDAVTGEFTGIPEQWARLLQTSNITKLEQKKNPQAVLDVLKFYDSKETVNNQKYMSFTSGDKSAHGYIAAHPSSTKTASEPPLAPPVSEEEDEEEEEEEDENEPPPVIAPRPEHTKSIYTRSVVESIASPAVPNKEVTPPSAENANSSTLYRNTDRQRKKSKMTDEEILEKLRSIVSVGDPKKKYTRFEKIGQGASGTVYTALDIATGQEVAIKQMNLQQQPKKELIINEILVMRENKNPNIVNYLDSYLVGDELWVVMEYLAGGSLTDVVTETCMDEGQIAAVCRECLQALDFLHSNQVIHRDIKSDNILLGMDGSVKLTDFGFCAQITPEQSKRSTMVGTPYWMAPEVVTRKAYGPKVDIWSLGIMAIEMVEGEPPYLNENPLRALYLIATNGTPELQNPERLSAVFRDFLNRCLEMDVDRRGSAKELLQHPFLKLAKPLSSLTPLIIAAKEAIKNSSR

For assay [1], the target named is T1, V5-tagged CREB-regulating transcriptional coactivator 1 (CRTC1) (UniProt Q6UUV9).
T1 sequence: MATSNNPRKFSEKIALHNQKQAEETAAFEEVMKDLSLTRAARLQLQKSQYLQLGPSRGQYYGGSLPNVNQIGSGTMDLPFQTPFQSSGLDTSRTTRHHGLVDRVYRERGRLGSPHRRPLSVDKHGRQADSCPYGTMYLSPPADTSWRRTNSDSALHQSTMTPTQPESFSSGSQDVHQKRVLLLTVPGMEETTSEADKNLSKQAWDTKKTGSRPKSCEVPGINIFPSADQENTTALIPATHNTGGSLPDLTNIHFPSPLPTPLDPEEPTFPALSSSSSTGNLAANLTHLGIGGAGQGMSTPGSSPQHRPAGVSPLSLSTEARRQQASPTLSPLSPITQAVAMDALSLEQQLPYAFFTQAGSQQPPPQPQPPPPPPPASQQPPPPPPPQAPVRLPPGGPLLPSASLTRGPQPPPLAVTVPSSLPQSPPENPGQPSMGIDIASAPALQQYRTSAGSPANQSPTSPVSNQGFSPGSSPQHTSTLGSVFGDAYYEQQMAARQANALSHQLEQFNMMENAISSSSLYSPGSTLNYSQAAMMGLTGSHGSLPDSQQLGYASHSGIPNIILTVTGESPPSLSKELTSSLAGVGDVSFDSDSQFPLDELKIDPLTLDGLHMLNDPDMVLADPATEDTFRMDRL
The assay can be described thus: co-IP; HEK293T cells co-transfected; lysis buffer 20 mM Tris-HCl pH 7.5, 100 mM NaCl, 0.1% NP-40, 0.5 mM EDTA; lysate with anti-Flag or anti-V5 at 4°C overnight, protein A-agarose, three washes; Western blotting with anti-Flag, anti-V5, anti-Tax.

For assay [2], the target named is T2, V5-tagged CREB-regulating transcriptional coactivator 1 (CRTC1) (expressed in HeLa cells) (UniProt Q6UUV9).
T2 sequence: T1 sequence
The assay can be described thus: co-IP; HeLa cells transfected with expression plasmids for CRTC1-V5 and Tax; precipitation with monoclonal anti-V5, blot with anti-Tax; analysed as in Figure 5; control cells not depleted of Pak1.

For assay [3], the target named is Flag-tagged p21-activated kinase 1 (Pak1) (UniProt Q13153). The assay can be described thus: co-IP; HEK293T cells co-transfected; lysis buffer 20 mM Tris-HCl pH 7.5, 100 mM NaCl, 0.1% NP-40, 0.5 mM EDTA; lysate with anti-Flag or anti-V5 at 4°C overnight, protein A-agarose, three washes; Western blotting with anti-Flag, anti-V5, anti-Tax.
In assay [4] the target is Flag-tagged p21-activated kinase 3 (Pak3), wild type (UniProt O75914). The description is as above.

For “Flag-tagged p21-activated kinase 1 (Pak1) (from UniProt Q13153 1-545) (enzyme)”, the binding entry in assay [1] is recorded as “binds”.

On to “Flag-tagged p21-activated kinase 3 (Pak3), wild type (from UniProt O75914-2 1-544) (enzyme)”, for which, in assay [1], the binding entry was “binds”.

In the case of “HTLV-1 transactivator protein Tax (expressed in HeLa cells) (from UniProt P03409 1-353)”, the binding entry in assay [2] is given as “binds”.

In the case of “HTLV-1 transactivator protein Tax (from UniProt P03409 1-353)”, the binding entry in assay [3], in assay [1] and in assay [4] was “binds” each time.

These data come from publication PMC3651266.
